Results deposited as PubChem BioAssay AID1259405 (NCATS, 2018).
Screen: 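Knock-downs that lift recombinant protein yield in hamster ovary cells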 (primary screen). Cells: Chinese hamster CHO-K1 ovary cells with stable secreted eGFP expression. Knock-down reagent: single siRNA against mouse genes, 0.8 pmol siRNA per well (2 µl of 400 nM stock). Time to read-out: 3 days. Detection: 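Percent of the per-plate non-targeting control median for intracellular GFP per well by laser scanning cytometry and for cell viability by ATP luminescence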. Scale: GFP, % of control: higher = more GFP per well, higher productivity; viability (ATP), % of control: higher = more viable cells (more ATP). Rule for the call: 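Called active when intracellular GFP, relative to negative control, is at or above 120%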.
Here is a random part of about 50,000 reagents. About 4,000 of them (8%) count as active. 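Mouse siRNA library applied to hamster cells; one well for each siRNA.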 Unmarked entries are inactive. Reagents against one gene are numbered here.

Gene | siRNA no. | GFP, % of control | viability (ATP), % of control
Rinl (Ras and Rab interactor-like) | 1 | 96 | 96.8
Rinl (Ras and Rab interactor-like) | 2 | 76.2 | 87.8
Rinl (Ras and Rab interactor-like) | 3 | 82.8 | 111
4921517D22Rik (RIKEN cDNA 4921517D22 gene) | 1 | 47.9 | 59.3
4921517D22Rik (RIKEN cDNA 4921517D22 gene) | 2 | 65.9 | 57.1
4921517D22Rik (RIKEN cDNA 4921517D22 gene) | 3 | 100 | 105
Serf1 (small EDRK-rich factor 1) | 1 | 66 | 45.9
Serf1 (small EDRK-rich factor 1) | 2 | 103 | 69
Serf1 (small EDRK-rich factor 1) | 3 | 73.3 | 78.3
Gabrg1 (gamma-aminobutyric acid type A receptor subunit gamma 1) | 1 | 45.7 | 64.3
Gabrg1 (gamma-aminobutyric acid type A receptor subunit gamma 1) | 2 | 45.8 | 45.7
Gabrg1 (gamma-aminobutyric acid type A receptor subunit gamma 1) | 3 | 43.8 | 49
Mr1 (major histocompatibility complex, class I-related) | 1 | 12.6 | 28.3
Mr1 (major histocompatibility complex, class I-related) | 2 | 153 (active) | 104
Mr1 (major histocompatibility complex, class I-related) | 3 | 89.7 | 55.3
Slc22a19 | 1 | 85.2 | 43.9
Slc22a19 | 2 | 63.2 | 49.3
Slc22a19 | 3 | 69 | 91.7
Prss41 (serine protease 41) | 1 | 43.2 | 35.7
Prss41 (serine protease 41) | 2 | 74.7 | 52.6
Prss41 (serine protease 41) | 3 | 64.9 | 86.8
Tada2a (transcriptional adaptor 2A) | 1 | 102 | 93.2
Tada2a (transcriptional adaptor 2A) | 2 | 86.8 | 89.1
Dnajc12 (DnaJ heat shock protein family (Hsp40) member C12) | 1 | 55.5 | 27.2
Dnajc12 (DnaJ heat shock protein family (Hsp40) member C12) | 2 | 122 (active) | 78.8
Dnajc12 (DnaJ heat shock protein family (Hsp40) member C12) | 3 | 71.1 | 114
Chst11 (carbohydrate sulfotransferase 11) | 1 | 109 | 61
Chst11 (carbohydrate sulfotransferase 11) | 2 | 66.2 | 99
Chst11 (carbohydrate sulfotransferase 11) | 3 | 87 | 88.2
Slc19a1 | 1 | 71.2 | 104
Slc19a1 | 2 | 90.1 | 78.6
Slc19a1 | 3 | 83.4 | 96
Abca8a (ATP-binding cassette, sub-family A member 8a) | 1 | 92.2 | 89.8
Abca8a (ATP-binding cassette, sub-family A member 8a) | 2 | 151 (active) | 114
Abca8a (ATP-binding cassette, sub-family A member 8a) | 3 | 75.6 | 62.7
Rab15 (RAB15, member RAS oncogene family) | 1 | 116 | 32.8
Rab15 (RAB15, member RAS oncogene family) | 2 | 48.2 | 60.4
Rab15 (RAB15, member RAS oncogene family) | 3 | 84.8 | 78.4
Vcan (versican) | 1 | 122 (active) | 146
Vcan (versican) | 2 | 53.2 | 78.9
Jpt2 (Jupiter microtubule associated homolog 2) | 1 | 58.8 | 81.9
Jpt2 (Jupiter microtubule associated homolog 2) | 2 | 71.5 | 63.9
Jpt2 (Jupiter microtubule associated homolog 2) | 3 | 37.8 | 63.4
Sparcl1 (SPARC-like 1) | 1 | 84.2 | 74.4
Sparcl1 (SPARC-like 1) | 2 | 107 | 94.9
Sparcl1 (SPARC-like 1) | 3 | 59.1 | 70.4
Selenop (selenoprotein P) | 1 | 34.1 | 17.8
Selenop (selenoprotein P) | 2 | 26.7 | 69.8
Selenop (selenoprotein P) | 3 | 52.3 | 71.8
Coro1b (coronin, actin binding protein 1B) | 1 | 92.6 | 80.7
Coro1b (coronin, actin binding protein 1B) | 2 | 63.2 | 78.6
Coro1b (coronin, actin binding protein 1B) | 3 | 59.3 | 77.7
Clec1b (C-type lectin domain family 1, member b) | 1 | 27.4 | 26.8
Clec1b (C-type lectin domain family 1, member b) | 2 | 74.6 | 83.7
Clec1b (C-type lectin domain family 1, member b) | 3 | 68.7 | 67.6
Selenos (selenoprotein S) | 1 | 63.2 | 57
Selenos (selenoprotein S) | 2 | 116 | 68.8
Selenos (selenoprotein S) | 3 | 84 | 77.6
Cnpy4 (canopy FGF signaling regulator 4) | 1 | 98.5 | 68.4
Cnpy4 (canopy FGF signaling regulator 4) | 2 | 73.7 | 82.9
Cnpy4 (canopy FGF signaling regulator 4) | 3 | 88.4 | 82.5
Cdkl2 (cyclin dependent kinase like 2) | 1 | 52.8 | 71.6
Ist1 (IST1 factor associated with ESCRT-III) | 1 | 69.9 | 97.1
Ist1 (IST1 factor associated with ESCRT-III) | 2 | 41.1 | 31.5
Ist1 (IST1 factor associated with ESCRT-III) | 3 | 65.3 | 65
Nol9 (nucleolar protein 9) | 1 | 139 (active) | 141
Nol9 (nucleolar protein 9) | 2 | 81.1 | 63.2
Nol9 (nucleolar protein 9) | 3 | 87.2 | 73.6
Tmbim1 (transmembrane BAX inhibitor motif containing 1) | 1 | 58.5 | 104
Tmbim1 (transmembrane BAX inhibitor motif containing 1) | 2 | 103 | 73.2
Tmbim1 (transmembrane BAX inhibitor motif containing 1) | 3 | 62 | 70.2
Zfp1 (zinc finger protein 1) | 1 | 67.5 | 77.2
Zfp1 (zinc finger protein 1) | 2 | 179 (active) | 113
Zfp1 (zinc finger protein 1) | 3 | 105 | 78.6
Zfp1 (zinc finger protein 1) | 4 | 101 | 92.2
Zfp1 (zinc finger protein 1) | 5 | 97.9 | 91.7
Zfp1 (zinc finger protein 1) | 6 | 72.4 | 89
Zfp868 (zinc finger protein 868) | 1 | 119 | 74.7
Zfp868 (zinc finger protein 868) | 2 | 65.9 | 53.7
Zfp868 (zinc finger protein 868) | 3 | 131 (active) | 107
Ooep (oocyte expressed protein) | 1 | 106 | 84.2
Ooep (oocyte expressed protein) | 2 | 69.1 | 50.5
Ooep (oocyte expressed protein) | 3 | 97.2 | 80.5
Oga (O-GlcNAcase) | 1 | 104 | 67.5
Oga (O-GlcNAcase) | 2 | 60.4 | 68.8
Oga (O-GlcNAcase) | 3 | 90.5 | 74.3
Prxl2a (peroxiredoxin like 2A) | 1 | 68.8 | 65.2
Prxl2a (peroxiredoxin like 2A) | 2 | 54.6 | 75.1
Prxl2a (peroxiredoxin like 2A) | 3 | 93.2 | 98.2
Mettl27 (methyltransferase like 27) | 1 | 64.2 | 61.4
Mettl27 (methyltransferase like 27) | 2 | 91.1 | 76.9
Mettl27 (methyltransferase like 27) | 3 | 48.3 | 65.1
Baz2b (bromodomain adjacent to zinc finger domain, 2B) | 1 | 119 | 111
Baz2b (bromodomain adjacent to zinc finger domain, 2B) | 2 | 114 | 167
Baz2b (bromodomain adjacent to zinc finger domain, 2B) | 3 | 93.1 | 105
Vmn1r66 (vomeronasal 1 receptor 66) | 1 | 99.2 | 87.4
Vmn1r66 (vomeronasal 1 receptor 66) | 2 | 95.3 | 77.9
Vmn1r66 (vomeronasal 1 receptor 66) | 3 | 65.7 | 44.8
Blvra (biliverdin reductase A) | 1 | 79.5 | 84
Blvra (biliverdin reductase A) | 2 | 48.3 | 51.6
Blvra (biliverdin reductase A) | 3 | 51.4 | 63.1
Adh7 (alcohol dehydrogenase 7 (class IV), mu or sigma polypeptide) | 1 | 68.1 | 69.5
Adh7 (alcohol dehydrogenase 7 (class IV), mu or sigma polypeptide) | 2 | 139 (active) | 96.3
Adh7 (alcohol dehydrogenase 7 (class IV), mu or sigma polypeptide) | 3 | 87.8 | 81.8
Pdgfrl (platelet-derived growth factor receptor-like) | 1 | 77.8 | 73.1
Or6x1 (olfactory receptor family 6 subfamily X member 1) | 1 | 48.8 | 50.2
Or6x1 (olfactory receptor family 6 subfamily X member 1) | 2 | 70.8 | 75.4
Or6x1 (olfactory receptor family 6 subfamily X member 1) | 3 | 64.2 | 72.1

Targets above whose gene name starts with A or a:
Gene | siRNA no. | GFP, % of control | viability (ATP), % of control
Abca8a (ATP-binding cassette, sub-family A member 8a) | 1 | 92.2 | 89.8
Abca8a (ATP-binding cassette, sub-family A member 8a) | 2 | 151 (active) | 114
Abca8a (ATP-binding cassette, sub-family A member 8a) | 3 | 75.6 | 62.7
Adh7 (alcohol dehydrogenase 7 (class IV), mu or sigma polypeptide) | 1 | 68.1 | 69.5
Adh7 (alcohol dehydrogenase 7 (class IV), mu or sigma polypeptide) | 2 | 139 (active) | 96.3
Adh7 (alcohol dehydrogenase 7 (class IV), mu or sigma polypeptide) | 3 | 87.8 | 81.8
